Where a chain is given by its changes, count along the chain named. These are yes or no findings as the source states them, for the method shown. Binding seen in cells or lysates may run through a third protein. Some results given as binding are weak or reduced against the parent protein; the word gives no strength. Tags and fused reporters may be left off the sequences shown.
What was measured:
EGFP-Rab23 Q68L (human) = molecular target: T1, EGFP-Rab23 Q68L (human) (UniProt Q9ULC3); assay: co-IP; Sa3 cells stably expressing EGFP-Rab23 forms lysed in IP and westernblot lysis buffer; anti-EGFP antibody 6 h, A/G plus beads overnight, five washes; immunoblot for endogenous partners
T1 sequence: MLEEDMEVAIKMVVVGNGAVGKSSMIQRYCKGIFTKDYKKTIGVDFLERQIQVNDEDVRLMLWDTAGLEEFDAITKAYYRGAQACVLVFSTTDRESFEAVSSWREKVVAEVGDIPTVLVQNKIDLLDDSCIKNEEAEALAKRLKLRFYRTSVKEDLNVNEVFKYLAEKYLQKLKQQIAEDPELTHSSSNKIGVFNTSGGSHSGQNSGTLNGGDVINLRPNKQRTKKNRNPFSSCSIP

Protein sequences, listed by entry. Tags and fused reporters are not part of them. Lines headed by an entry give the natural chain unless they say otherwise; changes in a name come on top.
UniProt P05556: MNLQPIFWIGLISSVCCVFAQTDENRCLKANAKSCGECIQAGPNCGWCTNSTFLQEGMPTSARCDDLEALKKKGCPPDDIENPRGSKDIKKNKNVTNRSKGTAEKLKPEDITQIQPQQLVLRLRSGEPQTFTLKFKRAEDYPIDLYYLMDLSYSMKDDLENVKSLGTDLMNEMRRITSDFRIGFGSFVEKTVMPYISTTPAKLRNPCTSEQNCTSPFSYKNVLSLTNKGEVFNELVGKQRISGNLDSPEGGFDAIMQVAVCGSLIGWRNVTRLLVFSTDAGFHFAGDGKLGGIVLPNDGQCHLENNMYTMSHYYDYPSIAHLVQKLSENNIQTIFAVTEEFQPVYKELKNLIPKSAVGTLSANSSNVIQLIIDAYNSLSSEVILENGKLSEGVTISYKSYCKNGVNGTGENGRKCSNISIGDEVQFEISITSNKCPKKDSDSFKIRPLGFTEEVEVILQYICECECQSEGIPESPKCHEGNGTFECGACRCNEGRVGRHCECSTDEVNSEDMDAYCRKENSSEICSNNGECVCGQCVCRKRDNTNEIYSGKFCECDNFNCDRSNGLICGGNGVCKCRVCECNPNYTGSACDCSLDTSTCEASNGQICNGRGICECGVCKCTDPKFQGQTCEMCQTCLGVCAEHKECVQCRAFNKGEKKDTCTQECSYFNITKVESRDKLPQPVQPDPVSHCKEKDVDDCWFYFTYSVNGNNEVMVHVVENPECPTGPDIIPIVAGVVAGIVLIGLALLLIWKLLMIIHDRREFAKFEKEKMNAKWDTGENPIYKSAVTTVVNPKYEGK

EGFP-Rab23 WT (human) = molecular target: T2, EGFP-Rab23 WT (human) (UniProt Q9ULC3); assay: as above
T2 sequence: T1 sequence with L68Q

- binding (EGFP-Rab23 Q68L (human)): binds
- binding (EGFP-Rab23 WT (human)): binds
Substance: integrin β1 (from UniProt P05556 21-798) (receptor)

From publication PMC4868690
